# Laboratory results published in the supplement of paper PMC3334620.
# Over roughly 33,000 sequences, “E-score (-0.5 to 0.5)” has its median near -8e-05; the highest 2% begin near 0.23. This is one part of the list.
# Molecular target: T1, Nrg2 (UniProt P38082)
# T1 sequence: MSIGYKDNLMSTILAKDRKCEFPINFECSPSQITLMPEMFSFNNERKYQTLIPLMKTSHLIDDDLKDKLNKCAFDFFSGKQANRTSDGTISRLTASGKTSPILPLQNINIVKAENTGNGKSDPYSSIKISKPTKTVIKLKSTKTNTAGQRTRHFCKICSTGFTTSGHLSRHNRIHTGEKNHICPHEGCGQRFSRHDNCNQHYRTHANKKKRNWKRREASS
# Experiment: PBM E-score (8-mer binding enrichment) (E-score (-0.5 to 0.5)); higher = stronger / more preferred TF binding
# Settings: protein concentration: 100 nM; construct: GST-full length
# Procedure, shortened: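 Universal all-10-mer Agilent arrays, fresh or stripped once, were converted to double-stranded form by primer extension. GST-tagged yeast transcription factors from PURExpress in vitro transcription/translation, full-length or DNA-binding domain only, were applied at about 100-200 nM and detected with fluorescent anti-GST. After masliner normalisation, the Universal PBM Analysis Suite scored each ungapped eight-base word together with its reverse complement by E-score.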
row,Sequence,PBM E-score
1,ATGTTAGA,-0.18
2,CTATTATA,0.0933
3,AACAGGAA,-0.118
4,CATCTGTC,-0.0868
5,CCCAAATC,-0.0529
6,CCAGTCCA,-0.209
7,ATCACTCG,0.116
8,CCAGGATC,-0.169
9,CCTAAAGG,-0.103
10,GTTTTAGA,-0.0613
11,AGCTGCAG,0.0664
12,AGACTGCA,-0.239
13,AGCAGGTC,0.0487
14,AGTAAACG,-0.121
15,CAAATCAC,-0.0248
16,AGATGCCT,-0.171
17,CGATGAAA,0.0448
18,CATATGGG,0.123
19,GCCTCCGC,-0.0858
20,ACTCGACG,0.086
21,CCTCGGAC,0.135
22,GCGCCAAA,-0.0258
23,GTCGCACA,0.02
24,CCGATTAA,-0.0323
25,GCCGTCCC,0.059

# Some of the entries so far, with bars between the fields.
row | Sequence | PBM E-score
1 | ATGTTAGA | -0.18
5 | CCCAAATC | -0.0529
22 | GCGCCAAA | -0.0258

# More results.

row,Sequence,PBM E-score
1,CGTAACCC,0.0289
2,AATACTTC,0.132
3,CATTGTCC,0.129
4,ACATCGTC,0.1
5,GGACCCCA,0.236
6,ACCTCTAC,0.119
7,CGGTGCAG,-0.0852
8,GAGAGGTA,-0.185
9,CAACTTTC,0.163
10,GTTAACAA,0.254
11,AACAGTTC,0.151
12,CTCTTTGC,-0.063
13,CTCGACCC,0.00862
14,TATCTGAA,0.0833
15,AAGACGGA,0.0338
16,ATAGGAGC,-0.0899
17,AATTTCGA,0.0453
18,GAAGAGAA,-0.0264
19,CTAGACAC,-0.208
20,GTAGATTA,0.0978
21,TGCAGGAA,0.154
22,AAAAACCG,-0.124
23,ATAGGCTA,-0.0769
24,CCTAATTC,0.0103
25,AATTACAA,0.0791

row,Sequence,PBM E-score
1,AGATTTAT,0.0632
2,GGGGACGA,-0.0312
3,AACATAAA,-0.0006
4,ACAACACG,0.125
5,TTAGGCAA,0.00256
6,CCATACGG,-0.00757
7,ACTAGAGG,-0.221
8,ATCACTCA,0.106
9,GATCTAAA,-0.046
10,GGGAGCGA,-0.09
11,GACTCGCC,-0.23
12,GATACTCA,0.0583
13,CCGAGTGA,0.165
14,ACAATCTA,-0.0761
15,GGGATGCA,0.0407
16,GCTTAGCC,-0.0762
17,CATCTGGG,-0.164
18,ACGGCTTA,-0.124
19,CGCACACC,-0.0413
20,AACTAGAG,-0.0634
21,TGACTGAA,-0.024
22,ATCTACCG,0.0567
23,AGACACGA,0.073
24,TAACTATA,0.0211
25,GCGGCAGC,-0.221

row,Sequence,PBM E-score
1,GCCCAGGA,-0.0317
2,AATCGAAT,0.0933
3,GACTAGCA,-0.089
4,CTTTAGAA,-0.137
5,ACGTAGGA,-0.0606
6,ACGCTGTA,0.00044
7,CTATAATC,0.0714
8,CTGCCGCA,-0.0926
9,GTCGTCGA,-0.0659
10,CACCCGAA,0.154
11,AATGCCGA,0.0135
12,AGCGCCGC,0.051
13,ACGAAATG,0.126
14,GGCGAAAA,0.0852
15,AGCAGAGA,-0.00062
16,GAAGTCCA,0.0868
17,CCATCGCG,0.096
18,GCATTTAA,0.132
19,CCGAGCAC,-0.0966
20,AGAAGGCA,-0.112
21,ACGGTCTC,-0.153
22,AGTACGCC,-0.171
23,GGGTAGTA,-0.045
24,CACATCAG,-0.0629
25,ATTAGTCG,0.143

# A different layout for part of the listing above:
row	Sequence	PBM E-score
24	CCGATTAA	-0.0323
1	CGTAACCC	0.0289
7	CGGTGCAG	-0.0852
8	CTGCCGCA	-0.0926
10	CACCCGAA	0.154

# Carrying on.

row,Sequence,PBM E-score
1,ACTCCCTA,-0.298
2,CGGCTTAG,-0.149
3,CCTAACAC,0.179
4,GGCAAGCC,-0.226
5,AAACTTCT,0.149
6,AATTTGTG,0.139
7,AAGGACAA,0.0644
8,CTGGGACA,-0.147
9,AACGCACT,0.0421
10,CCGGCTAA,-0.0925
11,GTAGCGCA,0.103
12,GCGTATTA,-0.0807
13,TAGCGCAA,0.16
14,CAGTGGGG,-0.117
15,GAGGAAAC,0.0161
16,TAAATCGA,0.151
17,ACCAGGCC,0.027
18,CCCGCTAA,-0.0296
19,ACCTATAA,-0.112
20,AACAGATA,0.00922
21,ATCGAGTC,-0.0816
22,CTGCTGTC,-0.0817
23,CACTAGTA,0.103
24,GACTTACA,-0.171
25,GCGGTGCC,-0.113

row,Sequence,PBM E-score
1,GATGCCTA,-0.0949
2,GATGCCAC,-0.11
3,GGTGTATA,-0.25
4,ACCTTAAC,0.1
5,AGTTTCGC,0.0289
6,AACCGTCC,-0.138
7,ATTAAGAG,-0.0764
8,ACCAGCCC,-0.167
9,ATCCGACA,-0.115
10,CGTGACAG,-0.0873
11,CACCACAC,0.0854
12,CAACATTG,0.0622
13,CCGAAGCA,0.0405
14,AGCGCGGG,0.13
15,ATCTGCAC,-0.0166
16,GCTGGATA,0.101
17,CATGTAGA,0.0373
18,GACTTTCC,-0.161
19,AGACGATG,-0.0514
20,CGCGGTGC,0.00961
21,AAACAGTG,0.167
22,ATCCACAT,0.0617
23,AGGGGAGG,0.00427
24,CAACTTCG,0.0959
25,AATATTTG,0.185

row,Sequence,PBM E-score
1,AGCGTCCA,-0.0536
2,CTTCCTGA,0.119
3,ATACGGGA,-0.00335
4,CGATTGAC,0.175
5,CCTATATA,0.0688
6,ACCCGACA,0.065
7,ACGCCAGA,-0.102
8,CAAGCTAA,0.0135
9,AGACTCCG,-0.115
10,CATATCAG,0.0379
11,GATTGCGA,0.108
12,AGATTCTG,-0.11
13,CGGTTGAC,-0.0889
14,CGTAAAGA,-0.119
15,CTGCTAGA,-0.0728
16,CAGACCCA,-0.0149
17,GCGTCCTA,-0.162
18,CCCGGCCG,-0.128
19,CAAAGCCA,-0.0355
20,GGGTACCC,-0.139
21,CATACATC,0.00658
22,CCCAGCAC,-0.167
